PubChem BioAssay AID1224830 – NIAID, 2016
The deposit covers about 18,000 reagents; this is a random part of them. About 2,900 of all reagents (16%) were called active. 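Calls are made per well; low scores hint the gene aids the LPS response, high scores that it dampens it.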 Unmarked entries are inactive. Repeated entries: four replicate wells of each siRNA pool.

Purpose: 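Host factors that control LPS-induced TNF expression in human macrophages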 (primary screen)
Cells: human THP-1 monocytic leukaemia cells, TNF dual-luciferase reporter clone, PMA-differentiated to macrophage-like cells
Knock-down reagent: siRNA pool against human genes, 50 nM
Duration: LPS for 4 h, given about 3 days after siRNA transfection
Treatment: bacterial LPS (TLR4 ligand), 10 ng/ml
Measured: 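Ratio of firefly to renilla light, scaled to the plate median and expressed as a robust z-score per replicate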
Reading the numbers: TNF reporter robust z-score: higher = stronger TNF reporter response to LPS
Rule for the call: 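a well is active when its z-score exceeds 2.8 or falls below -1.5; control wells carry no call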

The opening 5 records, to show the layout:
| Gene | TNF reporter robust z-score |
| --- | --- |
| MTHFSD (methenyltetrahydrofolate synthetase domain containing) | -0.32 |
| MTHFSD (methenyltetrahydrofolate synthetase domain containing) | 1.17 |
| MTHFSD (methenyltetrahydrofolate synthetase domain containing) | 1.04 |
| MTHFSD (methenyltetrahydrofolate synthetase domain containing) | -0.87 |
| JADE2 (jade family PHD finger 2) | 0.14 |

The list itself, from the first entry:
| Gene | TNF reporter robust z-score |
| --- | --- |
| MTHFSD (methenyltetrahydrofolate synthetase domain containing) | -0.32 |
| MTHFSD (methenyltetrahydrofolate synthetase domain containing) | 1.17 |
| MTHFSD (methenyltetrahydrofolate synthetase domain containing) | 1.04 |
| MTHFSD (methenyltetrahydrofolate synthetase domain containing) | -0.87 |
| JADE2 (jade family PHD finger 2) | 0.14 |
| JADE2 (jade family PHD finger 2) | 0.6 |
| JADE2 (jade family PHD finger 2) | -0.31 |
| JADE2 (jade family PHD finger 2) | 0.21 |
| USP42 (ubiquitin specific peptidase 42) | 0.04 |
| USP42 (ubiquitin specific peptidase 42) | 1.07 |
| USP42 (ubiquitin specific peptidase 42) | 0.15 |
| USP42 (ubiquitin specific peptidase 42) | 1.5 |
| SPDL1 (spindle apparatus coiled-coil protein 1) | 0.92 |
| SPDL1 (spindle apparatus coiled-coil protein 1) | 1.94 |
| SPDL1 (spindle apparatus coiled-coil protein 1) | -0.55 |
| SPDL1 (spindle apparatus coiled-coil protein 1) | 1.11 |
| SPINK4 (serine peptidase inhibitor Kazal type 4) | -0.26 |
| SPINK4 (serine peptidase inhibitor Kazal type 4) | 0.99 |
| SPINK4 (serine peptidase inhibitor Kazal type 4) | 0.33 |
| SPINK4 (serine peptidase inhibitor Kazal type 4) | 0.29 |
| MYNN (myoneurin) | -1.52 (active) |
| MYNN (myoneurin) | -1.4 |
| MYNN (myoneurin) | -1.35 |
| MYNN (myoneurin) | -1.26 |
| LUZP2 (leucine zipper protein 2) | 0.33 |
| LUZP2 (leucine zipper protein 2) | 0.57 |
| LUZP2 (leucine zipper protein 2) | 0.05 |
| LUZP2 (leucine zipper protein 2) | 0.65 |
| LINGO2 (leucine rich repeat and Ig domain containing 2) | 1.19 |
| LINGO2 (leucine rich repeat and Ig domain containing 2) | -0.32 |
| LINGO2 (leucine rich repeat and Ig domain containing 2) | 1.38 |
| LINGO2 (leucine rich repeat and Ig domain containing 2) | 0.47 |
| BCL2L1 (BCL2 like 1) | -1.53 (active) |
| BCL2L1 (BCL2 like 1) | -1.08 |
| BCL2L1 (BCL2 like 1) | -1.37 |
| BCL2L1 (BCL2 like 1) | -1.29 |
| VNN2 (vanin 2) | -0.74 |
| VNN2 (vanin 2) | -0.83 |
| VNN2 (vanin 2) | -0.86 |
| VNN2 (vanin 2) | 0.09 |
| USP39 (ubiquitin specific peptidase 39) | -1.45 |
| USP39 (ubiquitin specific peptidase 39) | -0.48 |
| USP39 (ubiquitin specific peptidase 39) | -0.06 |
| USP39 (ubiquitin specific peptidase 39) | -0.02 |
| PIAS1 (protein inhibitor of activated STAT 1) | -0.48 |
| PIAS1 (protein inhibitor of activated STAT 1) | 1.32 |
| PIAS1 (protein inhibitor of activated STAT 1) | -0.03 |
| PIAS1 (protein inhibitor of activated STAT 1) | 0.14 |
| DIPK2A (divergent protein kinase domain 2A) | -0.38 |
| DIPK2A (divergent protein kinase domain 2A) | -0.59 |
| DIPK2A (divergent protein kinase domain 2A) | -0.65 |
| DIPK2A (divergent protein kinase domain 2A) | 0.91 |
| MARCHF2 (membrane associated ring-CH-type finger 2) | -0.56 |
| MARCHF2 (membrane associated ring-CH-type finger 2) | -1.97 (active) |
| MARCHF2 (membrane associated ring-CH-type finger 2) | -0.11 |
| MARCHF2 (membrane associated ring-CH-type finger 2) | 1.6 |
| PIP4P1 (phosphatidylinositol-4,5-bisphosphate 4-phosphatase 1) | 0.54 |
| PIP4P1 (phosphatidylinositol-4,5-bisphosphate 4-phosphatase 1) | 0.97 |
| PIP4P1 (phosphatidylinositol-4,5-bisphosphate 4-phosphatase 1) | -0.22 |
| PIP4P1 (phosphatidylinositol-4,5-bisphosphate 4-phosphatase 1) | 2.2 |
| S1PR5 (sphingosine-1-phosphate receptor 5) | -1.44 |
| S1PR5 (sphingosine-1-phosphate receptor 5) | -0.9 |
| S1PR5 (sphingosine-1-phosphate receptor 5) | -0.28 |
| S1PR5 (sphingosine-1-phosphate receptor 5) | 0.12 |
| SPSB4 (splA/ryanodine receptor domain and SOCS box containing 4) | -0.6 |
| SPSB4 (splA/ryanodine receptor domain and SOCS box containing 4) | 1.53 |
| SPSB4 (splA/ryanodine receptor domain and SOCS box containing 4) | 1.92 |
| SPSB4 (splA/ryanodine receptor domain and SOCS box containing 4) | 0.82 |
| CHMP1B (charged multivesicular body protein 1B) | -0.1 |
| CHMP1B (charged multivesicular body protein 1B) | 0.38 |
| CHMP1B (charged multivesicular body protein 1B) | -0.47 |
| CHMP1B (charged multivesicular body protein 1B) | 0.33 |
| CSF3 (colony stimulating factor 3) | 0.09 |
| CSF3 (colony stimulating factor 3) | 0.13 |
| CSF3 (colony stimulating factor 3) | -0.18 |
| CSF3 (colony stimulating factor 3) | 1.17 |
| MEST (mesoderm specific transcript) | 2.81 (active) |
| MEST (mesoderm specific transcript) | 1.07 |
| MEST (mesoderm specific transcript) | 1.22 |
| MEST (mesoderm specific transcript) | 1.14 |
| SIGMAR1 (sigma receptor chaperone 1) | 0.16 |
| SIGMAR1 (sigma receptor chaperone 1) | 0.55 |
| SIGMAR1 (sigma receptor chaperone 1) | 0.08 |
| SIGMAR1 (sigma receptor chaperone 1) | 0.54 |
| MCCC1 (methylcrotonyl-CoA carboxylase subunit 1) | 0.22 |
| MCCC1 (methylcrotonyl-CoA carboxylase subunit 1) | 1.09 |
| MCCC1 (methylcrotonyl-CoA carboxylase subunit 1) | 1.73 |
| MCCC1 (methylcrotonyl-CoA carboxylase subunit 1) | 0.46 |
| SCAND1 (SCAN domain containing 1) | 1.18 |
| SCAND1 (SCAN domain containing 1) | 2.28 |
| SCAND1 (SCAN domain containing 1) | 1.97 |
| SCAND1 (SCAN domain containing 1) | 2.34 |
| TTC12 (tetratricopeptide repeat domain 12) | -0.16 |
| TTC12 (tetratricopeptide repeat domain 12) | 0.53 |
| TTC12 (tetratricopeptide repeat domain 12) | 0.06 |
| TTC12 (tetratricopeptide repeat domain 12) | 0.76 |
| OR5H2 (olfactory receptor family 5 subfamily H member 2) | 0.26 |
| OR5H2 (olfactory receptor family 5 subfamily H member 2) | 0.66 |
| OR5H2 (olfactory receptor family 5 subfamily H member 2) | 0.29 |
| OR5H2 (olfactory receptor family 5 subfamily H member 2) | -0.17 |
| IRX4 (iroquois homeobox 4) | -0.4 |
| IRX4 (iroquois homeobox 4) | -0.57 |
| IRX4 (iroquois homeobox 4) | -0.65 |
| IRX4 (iroquois homeobox 4) | -0.25 |
| SYT12 (synaptotagmin 12) | 0.25 |
| SYT12 (synaptotagmin 12) | -0.65 |
| SYT12 (synaptotagmin 12) | 0.49 |
| SYT12 (synaptotagmin 12) | -0.59 |
| ACOT12 (acyl-CoA thioesterase 12) | 0.86 |
| ACOT12 (acyl-CoA thioesterase 12) | 0.9 |
| ACOT12 (acyl-CoA thioesterase 12) | 1.07 |
| ACOT12 (acyl-CoA thioesterase 12) | 1.43 |
| SLC50A1 | -0.43 |
| SLC50A1 | 0.79 |
| SLC50A1 | 0.84 |
| SLC50A1 | -0.48 |
| EED (embryonic ectoderm development) | 1.31 |
| EED (embryonic ectoderm development) | 0.97 |
| EED (embryonic ectoderm development) | 1.17 |
| EED (embryonic ectoderm development) | 1.18 |
| MYOF (myoferlin) | -1.27 |
| MYOF (myoferlin) | -0.73 |
| MYOF (myoferlin) | -0.13 |
| CAVIN2 (caveolae associated protein 2) | 0.63 |
| CAVIN2 (caveolae associated protein 2) | 0.16 |
| CAVIN2 (caveolae associated protein 2) | 0.94 |
| CAVIN2 (caveolae associated protein 2) | 1.58 |
| SLCO1C1 | -1.33 |
| SLCO1C1 | -1.37 |
| SLCO1C1 | -1.97 (active) |
| SLCO1C1 | -0.35 |
| PKP4 (plakophilin 4) | 0.8 |
| PKP4 (plakophilin 4) | 2.49 |
| PKP4 (plakophilin 4) | 2.14 |
| PKP4 (plakophilin 4) | 1.06 |
| AGER (advanced glycosylation end-product specific receptor) | -0.91 |
| AGER (advanced glycosylation end-product specific receptor) | -0.71 |
| AGER (advanced glycosylation end-product specific receptor) | -0.92 |
| AGER (advanced glycosylation end-product specific receptor) | -0.44 |
| PPP1R14A (protein phosphatase 1 regulatory inhibitor subunit 14A) | 0.37 |
| PPP1R14A (protein phosphatase 1 regulatory inhibitor subunit 14A) | 0.84 |
| PPP1R14A (protein phosphatase 1 regulatory inhibitor subunit 14A) | 0.08 |
| PPP1R14A (protein phosphatase 1 regulatory inhibitor subunit 14A) | 0.28 |
